## Primary screen of a compound library

Amino acid sequences for entries named in this document (tags omitted). Residues count along the entry.
UniProt A4I591, 1-473: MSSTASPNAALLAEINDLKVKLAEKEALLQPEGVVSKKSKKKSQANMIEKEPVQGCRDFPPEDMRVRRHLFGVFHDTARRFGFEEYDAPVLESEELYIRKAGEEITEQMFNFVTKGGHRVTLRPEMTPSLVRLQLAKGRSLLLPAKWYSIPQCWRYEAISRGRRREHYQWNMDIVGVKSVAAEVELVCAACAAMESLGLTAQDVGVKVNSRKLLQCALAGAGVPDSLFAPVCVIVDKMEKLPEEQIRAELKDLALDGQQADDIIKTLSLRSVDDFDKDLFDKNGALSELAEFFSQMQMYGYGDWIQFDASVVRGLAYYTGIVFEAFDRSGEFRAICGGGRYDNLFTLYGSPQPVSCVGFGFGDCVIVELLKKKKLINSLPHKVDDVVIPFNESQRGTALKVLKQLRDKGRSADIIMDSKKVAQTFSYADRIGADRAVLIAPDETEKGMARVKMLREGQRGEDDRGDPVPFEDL
UniProt P9WPC5, whole entry: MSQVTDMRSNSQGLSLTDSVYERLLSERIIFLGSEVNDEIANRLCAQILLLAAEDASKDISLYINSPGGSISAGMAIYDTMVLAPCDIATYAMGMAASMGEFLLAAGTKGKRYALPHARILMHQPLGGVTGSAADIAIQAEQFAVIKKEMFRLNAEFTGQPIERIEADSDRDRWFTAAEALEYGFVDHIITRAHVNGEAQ
UniProt P9WPC3, whole entry partner: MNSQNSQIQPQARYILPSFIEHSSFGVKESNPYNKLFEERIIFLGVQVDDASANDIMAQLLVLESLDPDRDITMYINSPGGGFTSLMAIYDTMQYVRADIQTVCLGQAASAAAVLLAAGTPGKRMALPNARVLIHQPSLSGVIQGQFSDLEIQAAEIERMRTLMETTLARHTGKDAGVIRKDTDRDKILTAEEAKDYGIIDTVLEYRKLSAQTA
UniProt Q4DA54, 1-478: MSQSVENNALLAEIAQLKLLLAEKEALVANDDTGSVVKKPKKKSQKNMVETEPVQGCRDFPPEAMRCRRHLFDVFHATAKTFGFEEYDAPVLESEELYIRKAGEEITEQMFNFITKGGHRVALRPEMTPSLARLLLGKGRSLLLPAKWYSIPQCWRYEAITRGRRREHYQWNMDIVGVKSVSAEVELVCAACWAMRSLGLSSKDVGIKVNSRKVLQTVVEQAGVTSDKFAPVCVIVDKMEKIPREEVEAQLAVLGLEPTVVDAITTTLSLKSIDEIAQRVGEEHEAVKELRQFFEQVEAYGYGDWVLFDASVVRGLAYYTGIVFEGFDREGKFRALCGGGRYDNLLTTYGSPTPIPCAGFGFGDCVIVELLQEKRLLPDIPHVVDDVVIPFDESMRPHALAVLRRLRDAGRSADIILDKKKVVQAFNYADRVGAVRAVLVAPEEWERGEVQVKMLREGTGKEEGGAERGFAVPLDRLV

Each number is a percent effect as filed.
The record does not define 0% and 100%; most values in the screen are far below 50% and negative numbers occur (in some assays of this library far below -100).
The compounds are a random part of those screened.

Toxoplasma: 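Assay of Toxoplasma gondii numbers, read through their beta-galactosidase reporter with a colour substrate. Concentration: 10 µM. The record gives no direction; the compounds picked for IC50 retests had high values, so higher reads as fewer parasites. Size under these conditions: about 67,000 compounds, about 260 of them at 50% or above in at least one test.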
T. brucei: 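Whole-parasite assay of Trypanosoma brucei over 72 hours; the read-out is not stated. Tested at 30 µM. Direction is inferred from retests: higher values go with stronger inhibition. Values scatter widely below zero; nearly all retest evidence comes from the higher of the two concentrations used. Of about 64,000 compounds tested this way, about 940 (1.5%) reached 50% or more in at least one test.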
LiHisRS: 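Enzyme assay of histidyl-tRNA synthetase; the read-out is not stated. Target: Histidine-tRNA ligase, Leishmania infantum (UniProt A4I591). Tested at 30 µM. Higher reads as stronger inhibition (inferred: compounds with an IC50 in retests scored well above the rest). The assay is labelled LdHisRS but filed under L. infantum. Of about 69,000 compounds tested this way, about 410 (0.6%) reached 50% or more in at least one test.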
ClpP1P2: 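ClpP1P2, Mycobacterium tuberculosis (UniProt P9WPC5 and UniProt P9WPC3). Protease assay of ClpP1P2, read by the AMC dye that it sets free. Concentration: 50 µM. Higher reads as stronger inhibition, judged from the few compounds that gave an IC50. Most other retested compounds had strongly negative values. About 69,000 compounds were tested under these conditions; 0.015% (about 10) showed 50% or more at least once.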
TcHisRS: 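Enzyme assay of histidyl-tRNA synthetase; the read-out is not stated. Target: Histidine-tRNA ligase, Trypanosoma cruzi CL Brener (UniProt Q4DA54). Tested at 30 µM. Direction is inferred from retests: higher values go with stronger inhibition. About 69,000 compounds were tested under these conditions; 0.045% (about 31) showed 50% or more at least once.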

With CC1c2ncc(CNC(=O)C3CC3)n2CCN1CC1CCC1.O=C(O)C(F)(F)F (stereo not drawn) the screen gave Toxoplasma: 6.031%; T. brucei: -15.3%.
With O=C(O)C(F)(F)F.O=C(O)C(F)(F)F.[H][C@@]12CCCO[C@]1([H])[C@H](N(C)Cc1ccco1)CN2CC1CCOCC1 the screen gave Toxoplasma: -3.795%; T. brucei: -23.61%.
With Cc1noc(C)c1NC(=O)CCn1cc(Br)ccc1=O the screen gave Toxoplasma: 5.643%; T. brucei: -14.29%; LiHisRS: 20%; ClpP1P2: 0.2319%; TcHisRS: 2.941%.
With Cc1cc(CN2CCC(CNS(=O)(=O)c3ccccc3F)CC2)c(C)o1 the screen gave Toxoplasma: 17.27%; T. brucei: 3.502%; LiHisRS: 25.81%; ClpP1P2: 5.948%; TcHisRS: 8.808%.
With O=c1cc(-c2ccncc2)nc(-c2ccc(CN3CC[C@@H](O)C3)cc2)[nH]1 the screen gave Toxoplasma: 4.799%; T. brucei: -41.98%; LiHisRS: 6.25%; ClpP1P2: -12.3%; TcHisRS: 11.17%.
With COC1CN(C(=O)Cc2cccs2)CCC(=O)N(C)c2ccccc21 (stereo not drawn) the screen gave Toxoplasma: 11.73%; T. brucei: -35.12%; LiHisRS: 14.29%; ClpP1P2: 1.208%; TcHisRS: 8.989%.
With NC[C@H]1CC[C@H](C(NC(=O)c2cccc(F)c2)c2ccccn2)CC1 (stereo partly drawn) the screen gave Toxoplasma: 4.019%; T. brucei: 33.47%; LiHisRS: 60%; ClpP1P2: 14.59%; TcHisRS: -1.075%.
With CS(=O)(=O)N1CCOCC2(CCN(C(=O)c3cccnc3)CC2)C1.O=C(O)C(F)(F)F the screen gave Toxoplasma: 7.852%; T. brucei: 1.976%.
With CCc1nc(NC(=O)NCCc2scnc2C)nn1C the screen gave Toxoplasma: -4.08%; T. brucei: -17.71%; LiHisRS: 3.226%; ClpP1P2: 11.07%; TcHisRS: 3.247%.
With CCn1cnnc1CNS(=O)(=O)N1CCCC1c1ccc(C)o1 (stereo not drawn) the screen gave Toxoplasma: -9.58%; T. brucei: 2.519%; LiHisRS: 17.33%; ClpP1P2: 1.43%; TcHisRS: 1.587%.
With CC1CCN(c2nccn3c(=O)[nH]nc23)CC1 the screen gave Toxoplasma: 4.264%; LiHisRS: 12.41%; ClpP1P2: 18.43%; TcHisRS: 0.5917%.
With CCC1CN(C(=O)COc2ccc(C)nc2)CCO1 (stereo not drawn) the screen gave Toxoplasma: 2.308%; T. brucei: -49.71%; LiHisRS: 1.724%; ClpP1P2: -2.52%; TcHisRS: 5.759%.
With Cc1noc(C)c1CN1C(=O)[C@H]2CC[C@@H]1CN(Cc1cccnc1N)C2 the screen gave LiHisRS: 2.885%; ClpP1P2: 11.97%; TcHisRS: 8.13%.
With COc1cc(NC(=O)CCn2nc(-c3cccs3)oc2=O)cc(OC)c1 the screen gave Toxoplasma: -1.144%; T. brucei: 2.36%; LiHisRS: 15.18%; ClpP1P2: -29.39%; TcHisRS: -1.734%.
With c1ccc(CNCC2Cn3nncc3CO2)nc1 (stereo not drawn) the screen gave Toxoplasma: 19.53%; T. brucei: -34.99%; LiHisRS: 5.263%; ClpP1P2: -6.915%; TcHisRS: 2.151%.
With CS(=O)(=O)Nc1cccc(CNC(=O)CCC(=O)c2cccs2)c1 the screen gave Toxoplasma: -4.933%; T. brucei: -10.03%; LiHisRS: 17.74%; ClpP1P2: -3.638%; TcHisRS: 5.844%.
With Cc1cc2n(n1)CC(CNCc1ccc(Oc3ccccc3)nc1)CN2 (stereo not drawn) the screen gave Toxoplasma: -27.64%; T. brucei: 53.59%; LiHisRS: 32.14%; ClpP1P2: -33.58%; TcHisRS: 17.75%.

For reference, 2 entries once more:

COC1CN(C(=O)Cc2cccs2)CCC(=O)N(C)c2ccccc21 (stereo not drawn) read Toxoplasma: 11.73%; T. brucei: -35.12%; LiHisRS: 14.29%; ClpP1P2: 1.208%; TcHisRS: 8.989%.
Cc1noc(C)c1CN1C(=O)[C@H]2CC[C@@H]1CN(Cc1cccnc1N)C2 read LiHisRS: 2.885%; ClpP1P2: 11.97%; TcHisRS: 8.13%.

The values are deposited in ChEMBL (CHEMBL3988442, “University of Dundee, Small-Polar-MMV Screening Library” (2021)).